{
  "source": "patent US10947596B2",
  "about": "“Compositions and methods for identification, assessment, prevention, and treatment of cancer using NFS1 biomarkers and modulators” (Dana-Farber Cancer Institute, Inc., priority 2014, dated 2021)",
  "origin": "cited, not measured here",
  "target": "T1, cysteine/glutainate antiporter (system xc-) (Homo sapiens, UniProt Q9UPY5)",
  "T1 sequence (Q9UPY5 1-501)": "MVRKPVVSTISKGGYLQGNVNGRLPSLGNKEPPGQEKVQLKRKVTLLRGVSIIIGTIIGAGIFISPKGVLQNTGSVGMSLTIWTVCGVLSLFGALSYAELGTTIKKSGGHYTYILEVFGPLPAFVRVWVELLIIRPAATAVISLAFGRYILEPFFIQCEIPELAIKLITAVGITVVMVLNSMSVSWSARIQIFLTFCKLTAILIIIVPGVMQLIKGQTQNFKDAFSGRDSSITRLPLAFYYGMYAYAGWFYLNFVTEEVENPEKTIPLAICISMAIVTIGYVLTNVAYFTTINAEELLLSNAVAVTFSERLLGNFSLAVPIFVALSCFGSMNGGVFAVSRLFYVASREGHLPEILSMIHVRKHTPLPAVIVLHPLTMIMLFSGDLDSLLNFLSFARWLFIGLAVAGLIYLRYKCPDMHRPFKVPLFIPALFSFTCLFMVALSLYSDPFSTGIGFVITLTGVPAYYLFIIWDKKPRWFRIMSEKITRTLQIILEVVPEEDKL",
  "T1 sequence (P08195 1-529 partner)": "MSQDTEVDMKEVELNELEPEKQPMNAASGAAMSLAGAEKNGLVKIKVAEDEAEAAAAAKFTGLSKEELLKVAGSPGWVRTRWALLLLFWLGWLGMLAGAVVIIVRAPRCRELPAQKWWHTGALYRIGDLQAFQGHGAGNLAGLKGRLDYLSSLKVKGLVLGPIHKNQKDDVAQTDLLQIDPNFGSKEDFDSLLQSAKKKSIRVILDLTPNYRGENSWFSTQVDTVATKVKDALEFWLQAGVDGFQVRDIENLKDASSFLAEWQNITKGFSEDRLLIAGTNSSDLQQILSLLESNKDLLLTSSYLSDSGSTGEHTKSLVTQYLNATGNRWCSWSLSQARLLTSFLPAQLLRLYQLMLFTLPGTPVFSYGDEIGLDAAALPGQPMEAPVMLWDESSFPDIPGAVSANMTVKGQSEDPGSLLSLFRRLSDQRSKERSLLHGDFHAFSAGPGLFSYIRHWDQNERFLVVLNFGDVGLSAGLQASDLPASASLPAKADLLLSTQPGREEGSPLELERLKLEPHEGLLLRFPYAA",
  "conditions": "cited from earlier work",
  "note": "At least one structure is not confirmed: it was looked up by name or label, or the drawing left a doubt.",
  "data": [
    {"compound": "CCOc1ccccc1-n1c(C(C)N2CCN(C(=O)COc3ccc(Cl)cc3)CC2)nc2ccccc2c1=O", "note": "(stereo not shown) [Erastin]", "values": [
      {"measurement": "cysteine uptake", "result": "inhibits cysteine uptake"}
    ]}
  ]
}
